Results are given in words; binding and its absence hold for the method and conditions named. Binding calls can cover weak binding; strength is not graded here. For part of these data: Binding seen in cells or lysates may run through a third protein. One block for each molecule: values may come before it.
Legend:
[1] = target: T1, LptB from Shigella flexneri (subunit of sfLptB2FG / sfLptB2FGC) (Shigella flexneri) (UniProt P0A9V4); assay: cryo-EM structure; purified sfLptB2FGC incubated with 5 mM AMP-PNP and 2 mM MgCl2 for 1 h at room temperature, in LMNG; both purified
T1 sequence: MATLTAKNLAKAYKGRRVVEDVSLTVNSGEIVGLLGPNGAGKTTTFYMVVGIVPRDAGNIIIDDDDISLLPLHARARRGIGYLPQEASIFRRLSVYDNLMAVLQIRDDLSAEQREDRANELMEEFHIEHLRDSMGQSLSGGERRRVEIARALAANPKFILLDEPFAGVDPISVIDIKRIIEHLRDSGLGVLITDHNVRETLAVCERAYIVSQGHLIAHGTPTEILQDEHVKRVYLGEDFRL

[2] = target: T1, LptB from Shigella flexneri (subunit of sfLptB2FG / sfLptB2FGC) (Shigella flexneri); assay: cryo-EM structure; sfLptB2FG, LPS-bound (LPS co-purified from E. coli), nucleotide-free, in LMNG, ~1 mg/ml; 3.7 Å overall; both purified
[3] = target: T1, LptB from Shigella flexneri (subunit of sfLptB2FG / sfLptB2FGC) (Shigella flexneri); assay: cryo-EM structure; sfLptB2FGC, LPS-bound, nucleotide-free, in LMNG, ~1 mg/ml; 3.1 Å; both purified
[4] = target: LptG from Shigella flexneri (subunit of sfLptB2FG / sfLptB2FGC) (Shigella flexneri); assay: cryo-EM structure; purified sfLptB2FGC incubated with 5 mM AMP-PNP and 2 mM MgCl2 for 1 h at room temperature, in LMNG; both purified
[5] = target: LptG from Shigella flexneri (subunit of sfLptB2FG / sfLptB2FGC) (Shigella flexneri); assay: cryo-EM structure; sfLptB2FG, LPS-bound (LPS co-purified from E. coli), nucleotide-free, in LMNG, ~1 mg/ml; 3.7 Å overall; both purified
[6] = target: LptG from Shigella flexneri (subunit of sfLptB2FG / sfLptB2FGC) (Shigella flexneri); assay: cryo-EM structure; sfLptB2FGC, LPS-bound, nucleotide-free, in LMNG, ~1 mg/ml; 3.1 Å; both purified

binding [1]: binds
binding [2]: binds
binding [3]: binds
Molecule: LptG from Shigella flexneri (subunit of sfLptB2FG / sfLptB2FGC)

binding [4]: binds
binding [5]: binds
binding [6]: binds
B1: LptF from Shigella flexneri (subunit of sfLptB2FG / sfLptB2FGC) (protein, UniProt P0AFA1 1-366)
chain: MIIIRYLVRETLKSQLAILFILLLIFFCQKLVRILGAAVDGDIPANLVLSLLGLGVPEMAQLILPLSLFLGLLMTLGKLYTESEITVMHACGLSKAVLVKAAMILAVFTAIVAAVNVMWAGPWSSRHQDEVLAEAKANPGMAALAQGQFQQATNGSSVLFIESVDGSDFKDVFLAQIRPKGNARPSVVVADSGHLTQLRDGSQVVTLNQGTRFEGTALLRDFRITDFQDYQAIIGHQAVALDPNDTDQMDMRTLWNTDTDRARAELNWRITLVFTVFMMALMVVPLSVVNPRQGRVLSMLPAMLLYLLFFLIQTSLKSNGGKGKLDPTLWMWTVNLIYLALAIVLNLWDTVPVRRLRASFSRKGAV

— publication PMC6744409
